Results reported in US5571685A (priority 1992, dated 1996).

The chains behind the UniProt entries cited, without tags or fusion partners.
UniProt Q51990, entry or part of it: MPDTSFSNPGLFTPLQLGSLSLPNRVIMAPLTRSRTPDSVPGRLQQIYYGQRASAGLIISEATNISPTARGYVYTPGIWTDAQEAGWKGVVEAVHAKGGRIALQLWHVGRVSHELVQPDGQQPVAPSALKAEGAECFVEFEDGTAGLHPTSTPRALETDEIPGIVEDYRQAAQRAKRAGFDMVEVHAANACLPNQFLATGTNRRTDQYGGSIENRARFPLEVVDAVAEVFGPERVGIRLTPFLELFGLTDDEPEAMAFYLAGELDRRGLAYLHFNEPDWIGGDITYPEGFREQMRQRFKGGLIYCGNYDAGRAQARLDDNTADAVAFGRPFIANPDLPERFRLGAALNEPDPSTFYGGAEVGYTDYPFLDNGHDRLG

Target: morphinone reductase (Pseudomonas putida, UniProt Q51990)

## CN1CC[C@]23c4c5ccc(O)c4O[C@H]2[C@@H](O)C=C[C@H]3[C@H]1C5 [morphine]
  Enzyme activity against compound as substrate: No activity
